Data on one substance can be found in paper PMC7259711.

Protein sequences, listed by entry. Tags and fused reporters are not part of them.
UniProt P38398: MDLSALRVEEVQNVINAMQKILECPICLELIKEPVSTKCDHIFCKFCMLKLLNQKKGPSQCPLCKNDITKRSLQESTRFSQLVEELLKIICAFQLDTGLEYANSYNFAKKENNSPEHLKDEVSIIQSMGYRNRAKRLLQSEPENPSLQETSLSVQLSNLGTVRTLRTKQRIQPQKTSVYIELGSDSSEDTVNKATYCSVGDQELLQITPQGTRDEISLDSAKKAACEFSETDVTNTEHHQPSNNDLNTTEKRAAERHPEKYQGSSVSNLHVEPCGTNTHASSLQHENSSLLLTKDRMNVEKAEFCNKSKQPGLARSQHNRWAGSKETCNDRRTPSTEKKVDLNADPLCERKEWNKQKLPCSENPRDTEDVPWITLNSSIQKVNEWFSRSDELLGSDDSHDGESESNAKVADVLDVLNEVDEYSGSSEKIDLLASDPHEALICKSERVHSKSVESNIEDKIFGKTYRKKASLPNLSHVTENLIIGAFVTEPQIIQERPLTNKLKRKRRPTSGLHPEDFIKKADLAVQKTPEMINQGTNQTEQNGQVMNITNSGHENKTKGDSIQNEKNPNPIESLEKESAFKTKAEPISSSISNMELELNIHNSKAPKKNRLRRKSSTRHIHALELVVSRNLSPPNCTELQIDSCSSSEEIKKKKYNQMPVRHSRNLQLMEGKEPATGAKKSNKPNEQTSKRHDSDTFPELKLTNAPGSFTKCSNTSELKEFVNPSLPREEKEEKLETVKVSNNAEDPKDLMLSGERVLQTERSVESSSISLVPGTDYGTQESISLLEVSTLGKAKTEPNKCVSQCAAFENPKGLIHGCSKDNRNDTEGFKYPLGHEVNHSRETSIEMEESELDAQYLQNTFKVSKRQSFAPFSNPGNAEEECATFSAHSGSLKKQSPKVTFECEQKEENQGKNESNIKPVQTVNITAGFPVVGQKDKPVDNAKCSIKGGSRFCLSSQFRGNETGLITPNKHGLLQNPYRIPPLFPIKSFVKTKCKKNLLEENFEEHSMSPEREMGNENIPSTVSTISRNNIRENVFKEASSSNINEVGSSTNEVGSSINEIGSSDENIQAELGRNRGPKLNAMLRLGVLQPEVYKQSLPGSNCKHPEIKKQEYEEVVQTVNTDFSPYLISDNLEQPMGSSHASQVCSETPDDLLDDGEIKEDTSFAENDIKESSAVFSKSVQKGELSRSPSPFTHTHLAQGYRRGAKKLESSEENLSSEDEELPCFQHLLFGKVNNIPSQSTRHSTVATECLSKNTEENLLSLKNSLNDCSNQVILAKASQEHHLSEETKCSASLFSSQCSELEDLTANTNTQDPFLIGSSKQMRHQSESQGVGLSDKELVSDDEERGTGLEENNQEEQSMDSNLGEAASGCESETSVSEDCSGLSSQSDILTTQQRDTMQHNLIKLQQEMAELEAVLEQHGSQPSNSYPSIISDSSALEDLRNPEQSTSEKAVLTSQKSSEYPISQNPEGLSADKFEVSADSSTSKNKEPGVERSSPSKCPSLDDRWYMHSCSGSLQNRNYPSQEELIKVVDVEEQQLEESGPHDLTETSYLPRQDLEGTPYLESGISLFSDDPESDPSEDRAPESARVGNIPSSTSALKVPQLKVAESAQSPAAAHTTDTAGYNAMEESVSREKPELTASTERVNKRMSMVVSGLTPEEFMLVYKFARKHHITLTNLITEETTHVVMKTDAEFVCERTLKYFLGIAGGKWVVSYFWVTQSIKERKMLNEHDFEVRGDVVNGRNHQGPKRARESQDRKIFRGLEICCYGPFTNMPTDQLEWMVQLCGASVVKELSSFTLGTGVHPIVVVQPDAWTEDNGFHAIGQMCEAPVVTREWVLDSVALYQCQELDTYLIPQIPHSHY
UniProt Q9GZX5: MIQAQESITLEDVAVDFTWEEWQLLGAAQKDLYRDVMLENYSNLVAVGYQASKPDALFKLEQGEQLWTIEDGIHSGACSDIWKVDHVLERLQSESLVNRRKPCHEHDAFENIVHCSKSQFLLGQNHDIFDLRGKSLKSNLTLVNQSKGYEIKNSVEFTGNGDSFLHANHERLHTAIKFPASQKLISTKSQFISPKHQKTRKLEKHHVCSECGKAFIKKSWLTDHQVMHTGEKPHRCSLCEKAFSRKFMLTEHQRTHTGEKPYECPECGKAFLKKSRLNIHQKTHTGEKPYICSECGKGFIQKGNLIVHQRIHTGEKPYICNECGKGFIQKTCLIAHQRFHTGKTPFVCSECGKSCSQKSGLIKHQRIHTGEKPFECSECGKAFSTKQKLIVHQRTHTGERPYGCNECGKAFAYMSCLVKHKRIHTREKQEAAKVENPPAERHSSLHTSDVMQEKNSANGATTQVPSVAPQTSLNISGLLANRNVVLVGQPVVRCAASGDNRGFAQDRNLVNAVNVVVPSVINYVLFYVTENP

For the test, the target named is breast cancer 1 (BRCA1) (human (endogenous in MCF-7)) (UniProt P38398). Nature of the test: ChIP/re-ChIP; MCF-7 cells; first round ChIP with BRCA1 antibody, eluted fractions incubated with ZBRK1 antibody; PFKP promoter region in the product verified by qPCR; IgG as negative control. (In general: In qPCR the cycle at which signal appears reflects the starting amount.)

These are yes or no findings as the source states them, for the method shown. Some results given as binding are weak or reduced against the parent protein; the word gives no strength.

With “Zinc finger and BRCA1-interacting protein with a KRAB domain 1 (ZBRK1) (from UniProt Q9GZX5 1-532)”, the binding entry was “binds”.
